Laboratory results taken from patent US8293489B2, “Methods for detection of biological substances” (priority 2007, dated 2012).

Experiments:
[1] = 96 plate colorimetric ELISA comparison of biological substances in various bodily fluids; set-up: species or system human
[2] = tested on: endoglin; assay: Endoglin in plasma, urine, saliva and nasal mucus; set-up: species or system human

B1: Placental Growth Factor (PGF) (protein, UniProt P49763 19-221, looked up)
Placenta growth factor: LPAVPPQQWALSAGNGSSEVEVVPFQEVWGRSYCRALERLVDVVSEYPSEVEHMFSPSCVSLLRCTGCCGDENLHCVPVETANVTMQLLKIRSGDRPSYVELTFSQHVRCECRHSPGRQSPDMPGDFRADAPSFLPPRRSLPMLFRMEWGCALTGSQSAVWPSSPVPEEIPRMHPGRNGKKQQRKPLREKMKPERCGDAVPRR
- concentration in NASAL MUCUS [1]: 170 ± 50 pg/mL
- concentration in PLASMA [1]: 11 ± 4 pg/mL
- concentration in SALIVA [1]: 9 ± 3 pg/mL
- concentration in URINE [1]: 12 ± 4 pg/mL

B2: Tumor Necrosis Factor β (TNF β) (protein, UniProt P01374 35-205, looked up)
Lymphotoxin-alpha: LPGVGLTPSAAQTARQHPKMHLAHSTLKPAAHLIGDPSKQNSLLWRANTDRAFLQDGFSLSNNSLLVPTSGIYFVYSQVVFSGKAYSPKATSSPLYLAHEVQLFSSQYPFHVPLLSSQKMVYPGLQEPWLHSMYHGAAFQLTQGDQLSTHTDGIPHLVLSPSTVFFGAFAL
- concentration in NASAL MUCUS [1]: 0 pg/mL
- concentration in PLASMA [1]: 0 pg/mL
- concentration in SALIVA [1]: 0 pg/mL
- concentration in URINE [1]: 0 pg/mL

B3: Alpha Fetoprotein (AFP) (protein, UniProt P02771 19-609, looked up)
Alpha-fetoprotein: RTLHRNEYGIASILDSYQCTAEISLADLATIFFAQFVQEATYKEVSKMVKDALTAIEKPTGDEQSSGCLENQLPAFLEELCHEKEILEKYGHSDCCSQSEEGRHNCFLAHKKPTPASIPLFQVPEPVTSCEAYEEDRETFMNKFIYEIARRHPFLYAPTILLWAARYDKIIPSCCKAENAVECFQTKAATVTKELRESSLLNQHACAVMKNFGTRTFQAITVTKLSQKFTKVNFTEIQKLVLDVAHVHEHCCRGDVLDCLQDGEKIMSYICSQQDTLSNKITECCKLTTLERGQCIIHAENDEKPEGLSPNLNRFLGDRDFNQFSSGEKNIFLASFVHEYSRRHPQLAVSVILRVAKGYQELLEKCFQTENPLECQDKGEEELQKYIQESQALAKRSCGLFQKLGEYYLQNAFLVAYTKKAPQLTSSELMAITRKMAATAATCCQLSEDKLLACGEGAADIIIGHLCIRHEMTPVNPGVGQCCTSSYANRRPCFSSLVVDETYVPPAFSDDKFIFHKDLCQAQGVALQTMKQEFLINLVKQKPQITEEQLEAVIADFSGLLEKCCQGQEQEVCFAEEGQKLISKTRAALGV
- concentration in NASAL MUCUS [1]: 0 pg/mL
- concentration in PLASMA [1]: 2700 ± 500 pg/mL
- concentration in SALIVA [1]: 0 pg/mL
- concentration in URINE [1]: 0 pg/mL

B4: Thymus and Activation Regulated Chemokine (TARC) (protein, UniProt Q92583 24-94, looked up)
C-C motif chemokine 17: ARGTNVGRECCLEYFKGAIPLRKLKTWYQTSEDCSRDAIVFVTVQGRAICSDPNNKRVKNAVKYLQSLERS
- concentration in NASAL MUCUS [1]: 1303 ± 830 pg/mL
- concentration in PLASMA [1]: 875 ± 240 pg/mL
- concentration in SALIVA [1]: 0 pg/mL
- concentration in URINE [1]: 0 pg/mL

B5: P Selectin (protein, UniProt P16109 42-830, looked up)
P-selectin: WTYHYSTKAYSWNISRKYCQNRYTDLVAIQNKNEIDYLNKVLPYYSSYYWIGIRKNNKTWTWVGTKKALTNEAENWADNEPNNKRNNEDCVEIYIKSPSAPGKWNDEHCLKKKHALCYTASCQDMSCSKQGECLETIGNYTCSCYPGFYGPECEYVRECGELELPQHVLMNCSHPLGNFSFNSQCSFHCTDGYQVNGPSKLECLASGIWTNKPPQCLAAQCPPLKIPERGNMTCLHSAKAFQHQSSCSFSCEEGFALVGPEVVQCTASGVWTAPAPVCKAVQCQHLEAPSEGTMDCVHPLTAFAYGSSCKFECQPGYRVRGLDMLRCIDSGHWSAPLPTCEAISCEPLESPVHGSMDCSPSLRAFQYDTNCSFRCAEGFMLRGADIVRCDNLGQWTAPAPVCQALQCQDLPVPNEARVNCSHPFGAFRYQSVCSFTCNEGLLLVGASVLQCLATGNWNSVPPECQAIPCTPLLSPQNGTMTCVQPLGSSSYKSTCQFICDEGYSLSGPERLDCTRSGRWTDSPPMCEAIKCPELFAPEQGSLDCSDTRGEFNVGSTCHFSCDNGFKLEGPNNVECTTSGRWSATPPTCKGIASLPTPGVQCPALTTPGQGTMYCRHHPGTFGFNTTCYFGCNAGFTLIGDSTLSCRPSGQWTAVTPACRAVKCSELHVNKPIAMNCSNLWGNFSYGSICSFHCLEGQLLNGSAQTACQENGHWSTTVPTCQAGPLTIQEALTYFGGAVASTIGLIMGGTLLALLRKRFRQKDDGKCPLNPHSHLGTYGVFTNAAFDPSP
- concentration in NASAL MUCUS [1]: 1.64 ± 0.34 pg/mL
- concentration in PLASMA [1]: 30.4 ± 1.7 pg/mL
- concentration in SALIVA [1]: 0 pg/mL
- concentration in URINE [1]: 0 pg/mL

B6: Vascular Endothelial Growth Factor C (VEGF-C) (protein, UniProt P49767 112-227, looked up)
Vascular endothelial growth …: AHYNTEILKSIDNEWRKTQCMPREVCIDVGKEFGVATNTFFKPPCVSVYRCGGCCNSEGLQCMNTSTSYLSKTLFEITVPLSQGPKPVTISFANHTSCRCMSKLDVYRQVHSIIRR
- concentration in NASAL MUCUS [1]: 3449 ± 536 pg/mL
- concentration in PLASMA [1]: 336.8 ± 52.1 pg/mL
- concentration in SALIVA [1]: 379.8 ± 57.7 pg/mL

B7: Brain Derived Neurotrophic Factor (BDNF) (protein, UniProt P23560 19-247, looked up)
Neurotrophic factor BDNF …: APMKEANIRGQGGLAYPGVRTHGTLESVNGPKAGSRGLTSLADTFEHVIEELLDEDQKVRPNEENNKDADLYTSRVMLSSQVPLEPPLLFLLEEYKNYLDAANMSMRVRRHSDPARRGELSVCDSISEWVTAADKKTAVDMSGGTVTVLEKVPVSKGQLKQYFYETKCNPMGYTKEGCRGIDKRHWNSQCRTTQSYVRALTMDSKKRIGWRFIRIDTSCVCTLTIKRGR
- concentration in NASAL MUCUS [1]: 8000 ± 8000 pg/mL
- concentration in PLASMA [1]: 3.676e+06 ± 529000 pg/mL
- concentration in SALIVA [1]: 0 pg/mL
- concentration in URINE [1]: 0 pg/mL

B8: ENDOGLIN (protein, UniProt P17813 26-658, looked up)
Endoglin: ETVHCDLQPVGPERGEVTYTTSQVSKGCVAQAPNAILEVHVLFLEFPTGPSQLELTLQASKQNGTWPREVLLVLSVNSSVFLHLQALGIPLHLAYNSSLVTFQEPPGVNTTELPSFPKTQILEWAAERGPITSAAELNDPQSILLRLGQAQGSLSFCMLEASQDMGRTLEWRPRTPALVRGCHLEGVAGHKEAHILRVLPGHSAGPRTVTVKVELSCAPGDLDAVLILQGPPYVSWLIDANHNMQIWTTGEYSFKIFPEKNIRGFKLPDTPQGLLGEARMLNASIVASFVELPLASIVSLHASSCGGRLQTSPAPIQTTPPKDTCSPELLMSLIQTKCADDAMTLVLKKELVAHLKCTITGLTFWDPSCEAEDRGDKFVLRSAYSSCGMQVSASMISNEAVVNILSSSSPQRKKVHCLNMDSLSFQLGLYLSPHFLQASNTIEPGQQSFVQVRVSPSVSEFLLQLDSCHLDLGPEGGTVELIQGRAAKGNCVSLLSPSPEGDPRFSFLLHFYTVPIPKTGTLSCTVALRPKTGSQDQEVHRTVFMRLNIISPDLSGCTSKGLVLPAVLGITFGAFLIGALLTAALWYIYSHTRSPSKREPVVAVAAPASSESSSTNHSIGSTQSTPCSTSSMA
- ENDOGLIN ([2]; NASAL MUCUS): 0.2 ± 0.1 mg/mL
- ENDOGLIN/PROTEIN ([2]; NASAL MUCUS): 0.07 ± 0.01
- ENDOGLIN/PROTEIN ([2]; PLASMA): 0.38 ± 0.1
- ENDOGLIN ([2]; PLASMA, (33) subjects): 2.7 ± 0.1^†a mg/ml
- ENDOGLIN ([2]; SALIVA): 0 mg/mL
- ENDOGLIN ([2]; URINE): 0 mg/mL
- BLOOD CONCENTRATION ([2]; blood, mean ± spread): 12.7 ± 0.2 ng/mL
- BLOOD CONCENTRATION (range) ([2]; blood, range in parentheses): (1.1-6.0) ng/ml
- NASAL MUCUS CONCENTRATION ([2]; nasal mucus, mean ± spread): 0.8 ± 0.5 ng/mL
- NASAL MUCUS CONCENTRATION (range) ([2]; nasal mucus, range in parentheses): (0.02-3.0) ng/ml
